These are yes or no findings as the source states them, for the method shown.
Molecular target: DinB homolog polymerase (Dbh), C31S form (Sulfolobus acidocaldarius) (UniProt Q4JB80)
Assay: dynamic light scattering; NMR protein samples diluted to 1.1-1.3 mg/mL in 50 mM sodium phosphate, 100 mM NaCl, pH 7.5; Malvern Zetasizer Nano; measured at 35°C, then at 5°C; both purified

binding: no binding (tested: 1.1—1.3 mg/mL)
B1: DinB homolog polymerase (Dbh), C31S form (enzyme, UniProt Q4JB80 1-354)
chain: MIVIFVDFDYFFAQVEEVLNPQYKGKPLVVSVYSGRTKTSGAVATANYEARKLGVKAGMPIIKAMQIAPSAIYVPMRKPIYEAFSNRIMNLLNKHADKIEVASIDEAYLDVTNKVEGNFENGIELARKIKQEILEKEKITVTVGVAPNKILAKIIADKSKPNGLGVIRPTEVQDFLNELDIDEIPGIGSVLARRLNELGIQKLRDILSKNYNELEKITGKAKALYLLKLAQNKYSEPVENKSKIPHGRYLTLPYNTRDVKVILPYLKKAINEAYNKVNGIPMRITVIAIMEDLDILSKGKKFKHGISIDNAYKVAEDLLRELLVRDKRRNVRRIGVKLDNIIINKTNLSDFFDI
